# Source: patent US20110229463A1 (SYMPHOGEN A S, published 2011)
# No constants are given. Whether binding was seen depends on the method and setting. Some entries that bind do so weakly or less than the wild type.
# B1: antibody 992 (antibody, human IgG1, kappa, V domains shown)
# VH: EVQLQQPGSELVRPGASVKLSCKASGYTFTSYWMHWVKQRPGQGLEWIGNIYPGSRSTNYDEKFKSKATLTVDTSSSTAYMQLSSLTSEDSAVYYCTRNGDYYVSSGDAMDYWGQGTSVTVSS
# VL: DIQMTQTTSSLSASLGDRVTISCRTSQDIGNYLNWYQQKPDGTVKLLIYYTSRLHSGVPSRFSGSGSGTDFSLTINNVEQEDVATYFCQHYNTVPPTFGGGTKLEIKR
# notes: Chimeric mouse variable / human IgG1 kappa; the light chain entry includes the human kappa constant region; the end of the range is counted on the printed entry
# B2: antibody 1030 (antibody, human IgG1, kappa, V domains shown)
# VH: EVQLVESGGGLVKPGGSLKLSCAASGFTFSSYALSWVRQTPERRLEWVASISGVGSTYFPDSVKGRFTMSRDNARNILYLQMSSLRSEDTAMYYCARGSDGYFYAMDYWGQGTSVTVSS
# VL: DIVLTQSPASLAVSLGQRATISCRASKSVSTSGYSFMHWYQLKPGQPPKLLIYLASNLESGVPARFSGSGSGTDFTLNIHPVEEEDAATYYCQHSREFPLTFGGGTKLEIKR
# notes: Chimeric mouse/human IgG1 kappa
# B3: antibody 1254 (antibody, human IgG1, kappa, V domains shown)
# VH: EVQLVESGGGLVKPGGSLKLSCAASGFAYSTYDMSWVRQTPEKRLEWVAYISSGGDAAYYPDTVKGRFTISRDNAKNTLYLQMSSLKSEDTAMYYCARSRYGNYGDAMDYWGQGTSVTVSS
# VL: DVVMTQTPLSLPVSLGDQASISCRSSQSLVHSNGNTYLHWYLQKPGQSPKLLLYKVSNRFSGVPDRFSGSGSGTDFTLKISRVESEDLGVYFCSQNTHVYTFGGGTKLEIKR
# notes: Chimeric mouse/human IgG1 kappa; also called mAb 1254
# B4: antibody 1229 (antibody, human IgG1, kappa, V domains shown)
# VH: QVQLKESGPGLVAPSQSLSITCSVSGFSLTIYGVHWVRQPPGKGLEWLGVMWAGGNTDYNSALMSRLNISKDNSKSQVFLKVNSLQTDDTAMYYCTRDPDGYYVGWFFDVWGAGTTVTVSS
# VL: DIVMTQSHKFMSTSVGDRVSITCKASQDVTNAVAWYQQKPGQSPKLLIYWASIRHTGVPDRFTGSRSGTDYTLTINSVQAEDLALYYCQQHYNTPLTFGAGTKLEIKR
# B5: antibody 1024 (antibody, human IgG1, kappa, V domains shown)
# VH: QVQLQQPGAELVEPGGSVKLSCKASGYTFTSHWMHWVKQRPGQGLEWIGEINPSSGRNNYNEKFKSKATLTVDKSSSTAYMQFSSLTSEDSAVYYCVRYYGYDEAMDYWGQGTSVTVSS
# VL: DIVMTQAAFSNPVTLGTSASISCRSSKSLLHSNGITYLYWYLQKPGQSPQLLIYQMSNLASGVPDRFSSSGSGTDFTLRISRVEAEDVGVYYCAQNLELPYTFGGGTKLEIKR
# notes: as for B2
# Biological target: EGFRvIII (deletion mutant EGFR receptor) (human) (UniProt P00533)
# Assay: EGFRvIII-specific ELISA (Example 1)
row,binding,Binder
1,binds,B1
2,binds,B2
3,binds,B3
4,binds,B4
5,binds,B5
